Record: PubChem BioAssay AID1159584 (Peter MacCallum Cancer Centre, 2016)

Aim: 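Genes that CDH1-null MCF10A cells selectively depend on to survive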 (primary screen)
System: human MCF10A breast epithelial cells, parental and CDH1-null
Reagents: siRNA against human genes
Measurement: 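ATP luminescence (CellTiter-Glo) viability per line relative to mean mock wells over all plates, and the ratio of CDH1-null to parental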
Reading the numbers: CDH1-null / parental viability ratio: higher = CDH1-null cells survive relatively better than parental; CDH1-null viability vs mock: higher = more viable CDH1-null cells
The deposit covers about 18,000 reagents; below is a random part of them. Not all columns of the deposit are shown. The record does not give: the amount of reagent, the time to read-out.

| CDH1-null / parental viability ratio | CDH1-null viability vs mock (fraction of mock) | Target gene |
| --- | --- | --- |
| 0.78 | 0.5 | SELP (GeneID 6403) |
| 1.39 | 0.79 | SERTAD4 (GeneID 56256) |
| 0.94 | 0.58 | TMEM234 (GeneID 56063) |
| 0.85 | 0.7 | DFFA (GeneID 1676) |
| 1.14 | 1.09 | DIS3L2 (GeneID 129563) |
| 0.73 | 0.82 | WRAP53 (GeneID 55135) |
| 1.33 | 0.52 | TMEM107 (GeneID 84314) |
| 1.1 | 0.79 | NOC4L (GeneID 79050) |
| 1.02 | 0.98 | GM2A (GeneID 2760) |
| 1.27 | 1.12 | MAP7 (GeneID 9053) |
| 0.98 | 0.85 | MIER2 (GeneID 54531) |

Entries listed so far whose gene name begins with D or d (2):
| CDH1-null / parental viability ratio | CDH1-null viability vs mock (fraction of mock) | Target gene |
| --- | --- | --- |
| 0.85 | 0.7 | DFFA (GeneID 1676) |
| 1.14 | 1.09 | DIS3L2 (GeneID 129563) |

Further results follow.
| CDH1-null / parental viability ratio | CDH1-null viability vs mock (fraction of mock) | Target gene |
| --- | --- | --- |
| 0.85 | 0.61 | PLAAT3 (GeneID 11145) |
| 1.16 | 1.14 | WDR72 (GeneID 256764) |
| 0.85 | 0.84 | NME7 (GeneID 29922) |
| 1.16 | 0.94 | IFT70B (GeneID 150737) |
| 1.47 | 0.75 | ERP29 (GeneID 10961) |
| 1.05 | 0.84 | CAPN1 (GeneID 823) |
| 0.87 | 0.8 | OR14A16 (GeneID 284532) |
| 0.89 | 0.84 | RP9 (GeneID 6100) |
| 0.92 | 0.74 | APOBEC4 (GeneID 403314) |
| 1.13 | 0.7 | KRT19 (GeneID 3880) |
| 1.05 | 0.44 | LMX1B (GeneID 4010) |
| 1.24 | 1.07 | ADAM11 (GeneID 4185) |
| 0.79 | 0.62 | ABHD13 (GeneID 84945) |
| 1.19 | 0.88 | PRDM15 (GeneID 63977) |
| 1.07 | 0.64 | HCFC1 (GeneID 3054) |
| 1.29 | 0.88 | CEP57L1 (GeneID 285753) |
| 1.08 | 0.7 | EIF1AX (GeneID 1964) |
